# Laboratory results reported in the supplement of paper PMC9135407.
# Where “and” joins values, the source holds several entries; their conditions need not be identical. Identical values can stand only once. Counter-ions that a name gives are not always drawn. ± gives the standard deviation of the averaged measurements. The list shows a part of the results. Plates or batches differ in their baseline, so values are only roughly comparable.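 Assay uses culture-activated primary human stellate myofibroblasts; lipid droplet recovery indicates inactivation. Measured: proportion of Hoechst-counted cells over a plate-specific Bodipy cutoff, duplicate wells, DMSO and nortriptyline as per-plate negative and positive controls. A hit scores, control-normalized, above the plate's top-tenth-percentile nortriptyline wells or ranks among its three best wells. Final well concentrations not reported.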
# System: primary human hepatic stellate cells (donor 1)
# Assay: percent Bodipy-positive cells; higher = more lipid droplet accumulation
# Conditions: 48 h
# Procedure: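 Primary lipid accumulation screen in primary human hepatic stellate cell myofibroblasts (donor 1, passage 8) in 384-well plates. 100 nL of library compound was pin-transferred into 30 µL medium in duplicate, and cells were treated for 48 h. The 'Scaled' score combines distance from plate baseline, toxicity and reproducibility penalties, and is normalised to nortriptyline (positive) and DMSO (negative) controls on each plate. A hit is defined as scaled >0.85 or among the top 3 wells per plate.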
# [1] = library stock concentration: 10 mM
# [2] = library stock concentration: 3.33 mM
# [3] = library stock concentration: 8.6 mM
# [4] = library stock concentration: 1 mM
# [5] = library stock concentration: 7.7 mM
# [6] = library stock concentration: 100 uM
# [7] = library stock concentration: 80 uM
# [8] = library stock concentration: 400 uM
compound,measurement,setting,value
C=C(C)[C@H]1O[C@H]2CC[C@@]3(C)[C@@](O)(CC[C@H]4[C@@H]5OC(C)(C)[C@H]6C[C@@H]7C(=C)Cc8c(Cl)cc9[nH]c(c5c9c8[C@@]76O)[C@@]43C)[C@@]23O[C@H]3[C@H]1O [Penitrem A],percent Bodipy-positive cells,library stock concentration: 7.9 mM,27.9 ± 19%
"C[N+]1(C)CCN(c2ccccc2)CC1 [1,1-Dimethyl-4-phenyl-piperazinium iodide]",percent Bodipy-positive cells,[1],40.45 ± 0.38%
C[N+]1(C)CCN(c2ccccc2)CC1,percent Bodipy-positive cells,[1],11.4 ± 1.4%
C[C@H](Cc1ccc2c(c1)OC(C(=O)O)(C(=O)O)O2)NC[C@H](O)c1cccc(Cl)c1,percent Bodipy-positive cells,[1],39.6 ± 10%
CCC1(c2ccc(N)cc2)CCC(=O)NC1=O (configuration not stated) [(?)-p-Aminoglutethimide],percent Bodipy-positive cells,[1],50.4 ± 2.8%
CCC1(c2ccc(N)cc2)CCC(=O)NC1=O (configuration not stated) [Aminoglutethimide],percent Bodipy-positive cells,[2],8.02 ± 1.7%
same,percent Bodipy-positive cells,[3],2.95 ± 0.4%
same,percent Bodipy-positive cells,[1],10.9% and 17.6% and 26.3%
"CCC1(c2ccc(N)cc2)CCC(=O)NC1=O (configuration not stated) [Glutethimide, para-amino]",percent Bodipy-positive cells,,21.3 ± 5%
O=c1[nH]c2ccccc2n1C1CCN(CCCC(c2ccc(F)cc2)c2ccc(F)cc2)CC1 [Pimozide],percent Bodipy-positive cells,[1],74.9 ± 5.3%
CCCN1CCC[C@H](c2cccc(O)c2)C1 [R(+)-3PPP hydrochloride],percent Bodipy-positive cells,[1],18.6 ± 1.1%
NC(=O)COc1c(F)cc(SCCNS(=O)(=O)c2ccccc2)cc1F,percent Bodipy-positive cells,[1],33.8 ± 6.4%
CC[C@@]1([C@@H]2O[C@@H]([C@H]3O[C@@](O)(CO)[C@H](C)C[C@@H]3C)C[C@@H]2C)CC[C@H]([C@]2(C)CC[C@]3(C[C@H](O)[C@@H](C)[C@@H]([C@@H](C)[C@@H](OC)[C@H](C)C(=O)O)O3)O2)O1 [Monensin sodium salt],percent Bodipy-positive cells,,46.8 ± 9.2%
CCN(C)C(=O)Oc1cccc([C@H](C)N(C)C)c1 [Rivastigmine Tartrate],percent Bodipy-positive cells,[2],8.01 ± 2.2%
same,percent Bodipy-positive cells,[1],22.2 ± 5.7%
CCN(C)C(=O)Oc1cccc([C@H](C)N(C)C)c1 [Rivastigmine],percent Bodipy-positive cells,library stock concentration: 8 mM,9.34 ± 1.2%
O=C1NC(=O)c2c1c1c3ccccc3n3c1c1c2c2ccccc2n1C1CCC3O1,percent Bodipy-positive cells,[1],80.4 ± 1.2%
NCCc1ccc(O)cc1 [4-Hydroxyphenethylamine hydrochloride],percent Bodipy-positive cells,[1],15.3 ± 2.1%
NCCc1ccc(O)cc1 [Tyramine],percent Bodipy-positive cells,[1],26.6 ± 7.5%
"CN(C(=O)Cc1ccc(Cl)c(Cl)c1)C(CN1CCCC1)c1cccc(OCC(=O)O)c1 (configuration not stated) [ICI 204,448 hydrochloride]",percent Bodipy-positive cells,[1],46.2 ± 5.1%
CN(C)C(=O)Oc1cc(OC(=O)N(C)C)cc(C(O)CNC(C)(C)C)c1 (configuration not stated) [Bambuterol HCl],percent Bodipy-positive cells,[2],6.16 ± 1.5%
same,percent Bodipy-positive cells,[1],26.6 ± 2.5%
CN(C)C(=O)Oc1cc(OC(=O)N(C)C)cc(C(O)CNC(C)(C)C)c1 (configuration not stated) [Bambuterol],percent Bodipy-positive cells,library stock concentration: 5.4 mM,13.3 ± 0.18%
CN(C)C(=O)Oc1cc(OC(=O)N(C)C)cc(C(O)CNC(C)(C)C)c1 (configuration not stated) [Bambuterol hydrochloride],percent Bodipy-positive cells,,33.1 ± 3.1%
CCCCC/C=C\C/C=C\C/C=C\C/C=C\CCCCOC(CO)CO [2-Arachidonyl Glycerol ether],percent Bodipy-positive cells,[4],11.8 ± 3.3%
C[N+]1(C)[C@@H]2C[C@@H](OC(=O)[C@H](CO)c3ccccc3)C[C@H]1[C@@H]1O[C@@H]12 [Methscopolamine],percent Bodipy-positive cells,[2],8.15 ± 2.1%
same,percent Bodipy-positive cells,[1],17.2 ± 0.44%
C[N+]1(C)[C@@H]2C[C@@H](OC(=O)[C@H](CO)c3ccccc3)C[C@H]1[C@@H]1O[C@@H]12 [(-)-Scopolamine methyl bromide],percent Bodipy-positive cells,[1],12 ± 5.2%
C[N+]1(C)[C@@H]2C[C@@H](OC(=O)[C@H](CO)c3ccccc3)C[C@H]1[C@@H]1O[C@@H]12 [Methscopolamine bromide],percent Bodipy-positive cells,library stock concentration: 5 mM,4.39 ± 0.54%
same,percent Bodipy-positive cells,[1],11.2 ± 0.25%
C[C@]12CC[C@H](O)C[C@@H]1CC[C@@H]1[C@@H]2CC[C@]2(C)C(=O)CC[C@@H]12 [Epiandrosterone],percent Bodipy-positive cells,,39.2 ± 9.8%
same,percent Bodipy-positive cells,[2],12.4 ± 1.4%
same,percent Bodipy-positive cells,[1],49.1 ± 34%
Cn1cc(C(=O)C(=O)N[C@H]2CN3CCC2CC3)c2ccccc21,percent Bodipy-positive cells,[1],32.4 ± 4.1%
N[C@@]1(C(=O)O)CC[C@@H](C(=O)O)C1,percent Bodipy-positive cells,[1],9.47 ± 4.8%
CCn1cc(C(=O)O)c(=O)c2cc3c(cc21)OCO3 [Oxolinic acid],percent Bodipy-positive cells,,27.9 ± 1.5%
same,percent Bodipy-positive cells,[5],9.07 ± 1.7%
same,percent Bodipy-positive cells,[1],30.1% and 42%
CC1=NCCc2c1[nH]c1cc(O)ccc21.Cl.O.O [Harmalol hydrochloride dihydrate],percent Bodipy-positive cells,,88.6 ± 1.5%
Cc1nc(N)sc1CCN [Amthamine dihydrobromide],percent Bodipy-positive cells,[1],7.11 ± 2.6%
[N-]=[N+]=CC(=O)OC[C@H](N)C(=O)O [Azaserine],percent Bodipy-positive cells,[1],40.6 ± 4.6%
same,percent Bodipy-positive cells,library stock concentration: 11.6 mM,18.5 ± 5.1%
CCCCC/C=C\C[C@@H](/C=C/C=C\C/C=C\CCCC(=O)O)OO,percent Bodipy-positive cells,[6],9.51 ± 8.6%
CC(=O)O[C@H]1C[C@@H]2CC[C@@H]3[C@H](CCC4(C)[C@H]3C[C@H]([N+]3(C)CCCCC3)[C@@H]4OC(C)=O)C2(C)C[C@@H]1[N+]1(C)CCCCC1 (some centres not stated) [Pancuronium Br],percent Bodipy-positive cells,library stock concentration: 3.5 mM,10.3 ± 3.7%
CCCCCc1cc(O)c2c(c1)OC(C)(C)C1CCC(C(=O)O)=CC21 (configuration not stated) [Tetrahydrocannabinol-7-oic acid],percent Bodipy-positive cells,[4],11 ± 8.7%
"CCCCCCCCCC(=O)OC[C@H](COP(=O)([O-])OCC[N+](C)(C)C)OC(=O)CCCCCCCCC [1,2-Didecanoyl PC]",percent Bodipy-positive cells,[4],12.7 ± 6%
N=C1NC(=O)N2CC12 (configuration not stated),percent Bodipy-positive cells,[1],45.5 ± 17%
"NCC(O)c1ccc(O)cc1 (racemic) [(+,-)-Octopamine HCl]",percent Bodipy-positive cells,[2],10.5 ± 0.42%
same,percent Bodipy-positive cells,[1],22.6 ± 12%
"NCC(O)c1ccc(O)cc1 (racemic) [(+,-)-Octopamine hydrochloride]",percent Bodipy-positive cells,,9.81 ± 1.5%
CN=C(NS(=O)(=O)c1ccc(Cl)cc1)N1C[C@H](c2ccccc2)C(c2ccc(Cl)cc2)=N1,percent Bodipy-positive cells,[4],9.58 ± 2.1%
C[C@@H]1O[C@@H](O[C@H]2C[C@@H](O)[C@]3(CO)[C@H]4[C@H](O)C[C@]5(C)[C@@H](C6=CC(=O)OC6)CC[C@]5(O)[C@@H]4CC[C@]3(O)C2)[C@H](O)[C@H](O)[C@H]1O [Ouabain],percent Bodipy-positive cells,[3],80.2 ± 2.3%
COc1ccc2c3c([nH]c2c1)C(C)=NCC3 [Harmaline],percent Bodipy-positive cells,[1],55.5 ± 1.3%
COc1ccc2c3c([nH]c2c1)C(C)=NCC3 [Harmaline hydrochloride dihydrate],percent Bodipy-positive cells,,51 ± 6%
CN1[C@@H]2CC[C@H]1C[C@@H](OC1c3ccccc3CCc3ccccc31)C2 [Deptropine citrate],percent Bodipy-positive cells,,34.9 ± 0.93%
"C[C@@H](N)Cc1cnc[nH]1 [Histamine, R(-)-alpha-methyl-, dihydrochloride]",percent Bodipy-positive cells,[1],33.443 ± 0.0028%
Clc1cc(I)cc(Cl)c1NC1=NCCN1 [p-Iodoclonidine hydrochloride],percent Bodipy-positive cells,[1],49.9 ± 8.6%
Cn1c2cccc(=O)c-2nc2ccccc21 [Pyocyanin],percent Bodipy-positive cells,[4],40 ± 41%
CCCN(CCC)C1CCc2cccc(O)c2C1 (configuration not stated),percent Bodipy-positive cells,[1],54.8 ± 18%
CCCN(CCC)C1CCc2cccc(O)c2C1 (configuration not stated) [8-Hydroxy-DPAT hydrobromide],percent Bodipy-positive cells,[1],14.2 ± 3.6%
c1cncc(C2=NCCC2)c1 [Myosmine],percent Bodipy-positive cells,,6.16 ± 3.3%
CCCCC/C=C\C=C\[C@H](CCCCCCCC(=O)O)OO,percent Bodipy-positive cells,[6],11.3 ± 10%
N#CC(C#N)=Cc1ccc(O)cc1 [Tyrphostin-8],percent Bodipy-positive cells,library stock concentration: 29.4 mM,13.4 ± 1.5%
CC(C)(Cc1c[nH]c2ccc(Cl)cc12)NCCOc1ccccc1OCC1CC1,percent Bodipy-positive cells,[1],78 ± 1%
Cc1ccc(C[N+](C)(C)C)o1 [5-Methylfurmethiodide],percent Bodipy-positive cells,[1],6.52 ± 0.68%
O=c1[nH]c2ccccc2n1C1CCN(Cc2ccc(-c3[nH]c4cc5ncnc5cc4nc3-c3ccccc3)cc2)CC1 [Sigma A6730],percent Bodipy-positive cells,[7],8.9 ± 1.8%
same,percent Bodipy-positive cells,[8],7.79 ± 1.2%
same,percent Bodipy-positive cells,library stock concentration: 2 mM,19 ± 1.5%
same,percent Bodipy-positive cells,[1],73.7 ± 7.1%
c1cc(N2CCNCC2)c2cc[nH]c2c1 [4-(1-piperazinyl)-1H-Indole (hydrochloride)],percent Bodipy-positive cells,[4],10.1 ± 1.2%
CCCCCCCCCCCCCCCC(=O)OCC(COP(=O)([O-])OCC[N+](C)(C)C)OC(C)=O (configuration not stated),percent Bodipy-positive cells,[4],7.9 ± 1.3%
Cc1nccc2c1[nH]c1ccccc12 [Harmane hydrochloride],percent Bodipy-positive cells,,36.8 ± 1.9%
Cc1nccc2c1[nH]c1ccccc12 [Harmane],percent Bodipy-positive cells,[1],78.9 ± 6.3%
CCCN1CCc2cccc3c2[C@H]1Cc1ccc(O)c(O)c1-3 [R(-)-Propylnorapomorphine hydrochloride],percent Bodipy-positive cells,[1],59.7 ± 11%
C[C@]12CC[C@@H]3c4ccc(OC(=O)N(CCCl)CCCl)cc4CC[C@H]3[C@@H]1CC[C@@H]2O,percent Bodipy-positive cells,[1],73.5 ± 5.6%
COc1ccc(CCN2CCC(Nc3nc4ccccc4n3Cc3ccc(F)cc3)CC2)cc1 [Astemizole],percent Bodipy-positive cells,[1],95.76 ± 0.67%
CC[C@@]1(O)C[C@H](O[C@H]2C[C@H](N(C)C)[C@H](O)[C@H](C)O2)c2c(cc3c(c2O)C(=O)c2c(O)ccc(O)c2C3=O)[C@H]1C(=O)OC [Pyrromycin],percent Bodipy-positive cells,[1],63.3 ± 9.8%
COC[C@@H]([C@H](O)[C@H](O)C(=O)NCC[C@H](C)c1nc(/C=C/C[C@@H]2O[C@]3(C[C@@H](O)[C@@H]2C)O[C@H]([C@H](C[C@H](O)[C@H](C)[C@H](O)[C@H](C)/C=C(C)/C(C)=C/C=C/C(C)=C\C#N)OC)[C@H](OP(=O)(O)O)C3(C)C)co1)N(C)C [Calyculin A],percent Bodipy-positive cells,library stock concentration: 500 uM,100%
CCN1C[C@]2(COC)[C@H](O)C[C@H](OC)[C@@]34[C@@H]5C[C@@]6(O)[C@H](OC(=O)c7ccccc7)[C@@H]5[C@@](OC(C)=O)([C@@H]([C@H](OC)[C@H]23)[C@@H]14)[C@@H](O)[C@@H]6OC [Aconitine],percent Bodipy-positive cells,,24 ± 2.8%
same,percent Bodipy-positive cells,library stock concentration: 3.1 mM,10.8 ± 3%
same,percent Bodipy-positive cells,[5],23.3 ± 15%
same,percent Bodipy-positive cells,[1],32.9% and 21.5%
"CC(N)Cc1cccc(C(F)(F)F)c1 (single isomer, unassigned; (+)) [(+)-Norfenfluramine hydrochloride]",percent Bodipy-positive cells,[1],60.8 ± 20%
c1ccc2c(c1)[I+]c1ccccc1-2 [Diphenyleneiodonium],percent Bodipy-positive cells,library stock concentration: 17.9 mM,100%
O=[N+]([O-])c1cc([As](=O)(O)O)ccc1O [Roxarsone],percent Bodipy-positive cells,,6.83 ± 4.2%
same,percent Bodipy-positive cells,library stock concentration: 7.6 mM,14.6 ± 2.5%
same,percent Bodipy-positive cells,[1],13.5 ± 3.2%
COc1ccc2c(c[n+](C)c3c4cc5c(cc4ccc23)OCO5)c1OC [Chelerythrine chloride],percent Bodipy-positive cells,[7],10.3 ± 3.2%
same,percent Bodipy-positive cells,[8],9.52 ± 2.6%
same,percent Bodipy-positive cells,[1],86.1% and 100%
COc1ccc2c(c[n+](C)c3c4cc5c(cc4ccc23)OCO5)c1OC [Chelerythrine Chloride],percent Bodipy-positive cells,[2],98.81 ± 0.56%
O=C(O)c1ccc2[nH]cc(CCCCN3CC=C(c4ccccc4)CC3)c2c1 [Carmoxirole hydrochloride],percent Bodipy-positive cells,[1],3.01 ± 0.64%
